Values from PubChem BioAssay AID720505 (Drosophila RNAi Screening Center, 2013)
The screen tested about 20,000 reagents; shown is a random part of those that have a named target and a result. In the full data, about 2,100 (10%) are marked active. 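Raw plate signals without normalisation; calls rest on control-based scores that were not deposited; replicate 2 separates called from uncalled poorly.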 Reagent sequences are not shown. Not given: the amount of reagent, the time to read-out.

Aim: 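Knock-downs that reduce calcium influx once internal stores are emptied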 (primary screen)
System: Drosophila S2R+ cells
Reagents: long dsRNA against Drosophila genes
Conditions: thapsigargin (2 µM) in calcium-free buffer to empty internal stores, then 2 mM calcium added back
Measured: 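Stores emptied by 2 µM thapsigargin without calcium, then 2 mM calcium re-added; fluo-4 fluorescence followed by FLIPR in 384-well plates, per-well averaged endpoint, raw; two screen passes, some wells retested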
Scale: calcium signal and retest calcium signal: higher = more calcium entry after store depletion
Rule for the call: 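About 1500 genes called as lowering calcium entry, by varying amounts, judged against per-plate control wells with STIM1 as positive and Rho1 as negative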
Meaning of the calls: active = called as lowering calcium entry; inactive = not called

CG17026 [DRSC10237]
- calcium signal, replicate 1: 100
- calcium signal, replicate 2: 151
- retest calcium signal, replicate 1: 84.8
- retest calcium signal, replicate 2: 123
- Outcome: inactive

CG8065 [DRSC10959]
- calcium signal, replicate 1: 76.1
- calcium signal, replicate 2: 92.9
- Outcome: active

Cals [DRSC17196]
- calcium signal, replicate 1: 124
- calcium signal, replicate 2: 105
- Outcome: inactive

Cals [DRSC21661]
- calcium signal, replicate 1: 117
- calcium signal, replicate 2: 136
- Outcome: inactive

Pkd2 [DRSC02962]
- calcium signal, replicate 1: 117
- calcium signal, replicate 2: 153
- Outcome: inactive

CG12426 [DRSC14516]
- calcium signal, replicate 1: 122
- calcium signal, replicate 2: 111
- Outcome: inactive

GatB [DRSC15807]
- calcium signal, replicate 1: 223
- calcium signal, replicate 2: 87.3
- Outcome: inactive

piwi [DRSC03592]
- calcium signal, replicate 1: 90.5
- calcium signal, replicate 2: 90.9
- Outcome: inactive

st [DRSC11399]
- calcium signal, replicate 1: 97.8
- calcium signal, replicate 2: 90.7
- Outcome: inactive

CG10395 [DRSC04840]
- calcium signal, replicate 1: 134
- calcium signal, replicate 2: 162
- Outcome: inactive

SERCA [DRSC04600]
- calcium signal, replicate 1: 141
- calcium signal, replicate 2: 103
- Outcome: inactive

Or98b [DRSC16775]
- calcium signal, replicate 1: 108
- calcium signal, replicate 2: 160
- Outcome: active

Or98b [DRSC21751]
- calcium signal, replicate 1: 137
- calcium signal, replicate 2: 123
- Outcome: inactive

CG30159 [DRSC04981]
- calcium signal, replicate 1: 183
- calcium signal, replicate 2: 106
- Outcome: inactive

Sos [DRSC03439]
- calcium signal, replicate 1: 132
- calcium signal, replicate 2: 148
- Outcome: inactive

Edg78E [DRSC11863]
- calcium signal, replicate 1: 68.2
- calcium signal, replicate 2: 140
- Outcome: active

Or67c [DRSC11242]
- calcium signal, replicate 1: 96.6
- calcium signal, replicate 2: 111
- Outcome: inactive

CG5946 [DRSC10560]
- calcium signal, replicate 1: 60.1
- calcium signal, replicate 2: 84.5
- Outcome: active

CG6652 [DRSC10686]
- calcium signal, replicate 1: 93.5
- calcium signal, replicate 2: 102
- Outcome: inactive

2 neighbouring records from above:
Edg78E [DRSC11863]
- calcium signal, replicate 1: 68.2
- calcium signal, replicate 2: 140
- Outcome: active

Or67c [DRSC11242]
- calcium signal, replicate 1: 96.6
- calcium signal, replicate 2: 111
- Outcome: inactive
